No constants are given. Whether binding was seen depends on the method and setting. In cells and extracts the contact can be indirect. Some results given as binding are weak or reduced against the parent protein; the word gives no strength.

Chains of the proteins cited; added tags and fusions are not shown. Residues count along the entry.
UniProt Q9FL28, residues 24-1173: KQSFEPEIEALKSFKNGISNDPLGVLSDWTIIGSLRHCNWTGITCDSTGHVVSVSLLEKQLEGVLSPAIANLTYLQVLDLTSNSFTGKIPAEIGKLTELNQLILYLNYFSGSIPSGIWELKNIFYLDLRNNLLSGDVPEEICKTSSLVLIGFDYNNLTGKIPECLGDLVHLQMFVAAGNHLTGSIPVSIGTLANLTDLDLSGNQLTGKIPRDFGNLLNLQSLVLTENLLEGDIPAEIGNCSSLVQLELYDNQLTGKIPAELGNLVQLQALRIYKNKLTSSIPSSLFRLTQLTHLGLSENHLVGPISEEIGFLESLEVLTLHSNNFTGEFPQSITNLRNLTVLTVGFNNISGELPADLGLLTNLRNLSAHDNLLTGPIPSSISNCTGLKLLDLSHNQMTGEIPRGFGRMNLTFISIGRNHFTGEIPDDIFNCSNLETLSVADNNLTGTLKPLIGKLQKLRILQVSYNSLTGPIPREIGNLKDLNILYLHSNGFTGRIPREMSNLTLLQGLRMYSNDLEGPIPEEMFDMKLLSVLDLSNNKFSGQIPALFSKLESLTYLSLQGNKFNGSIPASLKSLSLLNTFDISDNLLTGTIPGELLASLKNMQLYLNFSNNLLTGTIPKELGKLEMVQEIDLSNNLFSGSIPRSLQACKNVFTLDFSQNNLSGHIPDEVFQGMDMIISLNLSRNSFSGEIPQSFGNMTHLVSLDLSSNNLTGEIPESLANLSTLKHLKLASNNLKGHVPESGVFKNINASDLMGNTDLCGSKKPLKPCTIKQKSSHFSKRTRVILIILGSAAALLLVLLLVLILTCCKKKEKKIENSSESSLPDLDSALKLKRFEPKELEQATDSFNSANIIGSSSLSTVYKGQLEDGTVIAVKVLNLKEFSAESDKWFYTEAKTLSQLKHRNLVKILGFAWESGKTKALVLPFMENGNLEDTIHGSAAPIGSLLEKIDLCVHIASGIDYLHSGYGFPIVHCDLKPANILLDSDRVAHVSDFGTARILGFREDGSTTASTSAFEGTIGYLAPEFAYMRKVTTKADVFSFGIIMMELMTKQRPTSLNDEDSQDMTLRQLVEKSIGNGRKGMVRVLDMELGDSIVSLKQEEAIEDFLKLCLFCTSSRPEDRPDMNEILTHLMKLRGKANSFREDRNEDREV

This test deals with FLS2-YFPn/c (UniProt Q9FL28). Nature of the test: split reporter.

As for “FLS2-YFPn/c (from UniProt Q9FL28 24-1173) (receptor)”, the binding entry is “binds”.
